Experimental data taken from PMC7819943, “Rice protein-binding microarrays: a tool to detect cis-acting elements near promoter regions in rice”.
This is one part of the list.

Each sequence was assayed against T1, OsSMF1 (Oryza sativa, UniProt Q6ZLB0 1-436) (assay: protein-binding microarray (RPBM); PBS, 2% BSA, 51.3 ng/ul salmon testes DNA, 50 uM zinc acetate, 200 nM TF, 25 C, 1 h; high values mean tight binding). Conditions: protein: recombinant; tags: N-terminal polyhistidine and DsRed monomer fusion (pET32a); chain copies: 2; label: CyDye5-dUTP incorporated in the synthesized complementary strand; 3' TTTTT single-stranded linker to array surface; dsDNA, one strand shown.
T1 sequence: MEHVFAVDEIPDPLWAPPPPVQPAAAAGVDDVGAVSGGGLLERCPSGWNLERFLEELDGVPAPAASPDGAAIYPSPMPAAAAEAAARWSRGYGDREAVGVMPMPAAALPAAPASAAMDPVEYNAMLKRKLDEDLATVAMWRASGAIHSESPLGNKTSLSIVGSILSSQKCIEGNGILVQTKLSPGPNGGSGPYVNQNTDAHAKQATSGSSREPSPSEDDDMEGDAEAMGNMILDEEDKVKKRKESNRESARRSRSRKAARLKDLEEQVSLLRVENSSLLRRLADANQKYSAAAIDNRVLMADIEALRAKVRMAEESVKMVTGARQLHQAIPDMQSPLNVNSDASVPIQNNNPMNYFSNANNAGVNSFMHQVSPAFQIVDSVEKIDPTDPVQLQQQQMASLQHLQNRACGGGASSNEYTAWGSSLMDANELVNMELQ
Summary of the method: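 In PBS with 2% BSA, salmon testes DNA and 50 µM zinc acetate, 200 nM protein was incubated on a custom Agilent array at 25 °C for 1 h and then washed off. The array had been made double-stranded by primer extension with Cy5-dUTP and blocked with 2% BSA. The proteins were transcription factors fused N-terminally to polyhistidine and DsRed, expressed in E. coli BL21-CodonPlus and purified on Ni–NTA. The binding signal is per-feature fluorescence intensity (arbitrary units) from an Axon 4000B scanner.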

Point of comparison: “ACACACGGCAGACGGCACCCACCACCCAAACTCGTTTTGGCGGAGTCACCTAGTGCAG”, binding signal 32600 fluorescence intensity (a.u.). Against it:
- AATTTTCGTCCCTTGACCGCAAAACCGAGTATGACCCGTCCGGAGTCACCTAGTGCAG — lower, 3240 fluorescence intensity (a.u.)
- GTGAGGTCCACTAAGGTGTCATATGTCATGTAGTCACCTCCGGAGTCACCTAGTGCAG — lower, 4820 fluorescence intensity (a.u.)
- GAATGCATACAGAGAGAGGCACTAATTGACGCGGGATCTCCGGAGTCACCTAGTGCAG — lower, 3610 fluorescence intensity (a.u.)
- ATTTCTGGGCGTGACGCCGCCTCCCCTACATCATACAAACCGGAGTCACCTAGTGCAG — lower, 4460 fluorescence intensity (a.u.)
- AGAGCCAGCGAGACGCCGGCATAGCTTGTACACGGTGGCTCGGAGTCACCTAGTGCAG — lower, 3800 fluorescence intensity (a.u.)
- GCCGCCGCCCTCCCCTTCTCCCACGTCACCGGCGACCTCCCGGAGTCACCTAGTGCAG — lower, 18500 fluorescence intensity (a.u.)
- GCGAGAAACAACAGCGCCCACGCCGCCACGCCGCCAGGCTCGGAGTCACCTAGTGCAG — lower, 3700 fluorescence intensity (a.u.)
- CACACGATTGAGTGACCAGATTACTCATTACACGTTCAATCGGAGTCACCTAGTGCAG — lower, 3590 fluorescence intensity (a.u.)
- CCCTGTCTTCCACGTGATTCAGTGCCCCACGTCACTGATACGGAGTCACCTAGTGCAG — lower, 12200 fluorescence intensity (a.u.)
- TCACTGCATTACTCTCAGTACAGTCAGTACATATAGCCGTCGGAGTCACCTAGTGCAG — lower, 4260 fluorescence intensity (a.u.)
- GACATATTTTAAAATTCCGGTCGATATAATGACTTGTCGGCGGAGTCACCTAGTGCAG — lower, 3210 fluorescence intensity (a.u.)
- AGCGACGCACCACAATACGGACGCATTCATGACACGTACCCGGAGTCACCTAGTGCAG — lower, 6280 fluorescence intensity (a.u.)
- CTCTCTCTCTCTCTCTCTCTACGACTCCCACCTCCACCTCCGGAGTCACCTAGTGCAG — lower, 3580 fluorescence intensity (a.u.)
- GTCTGGATCAGAGCTGTCCACATTGGTTGTATTCCTCTTTCGGAGTCACCTAGTGCAG — lower, 3620 fluorescence intensity (a.u.)
- TTTGTATAGAAAGTTTTCGTACGAAAAGCGTGTTACTAGTCGGAGTCACCTAGTGCAG — lower, 29900 fluorescence intensity (a.u.)
- TCATTTATTGGATTGGGAAGCGGTTTCGTCCGACGTGGCACGGAGTCACCTAGTGCAG — lower, 27900 fluorescence intensity (a.u.)
- ACAAGCAAATTATTTAATGAGATTTTATCTAGCTCAATTTCGGAGTCACCTAGTGCAG — lower, 24100 fluorescence intensity (a.u.)
- ATTGATCTCCTTTGACTTTTGCCAGTATCTCCTCTTCCTTCGGAGTCACCTAGTGCAG — lower, 30700 fluorescence intensity (a.u.)
- CGATCGTGCTTGTCATCCTGACGTACAACCGCGTGTGCTACGGAGTCACCTAGTGCAG — lower, 5070 fluorescence intensity (a.u.)
- AGCTGCATATATTGATTGACAGGTGTACCGATTCCTTATGCGGAGTCACCTAGTGCAG — lower, 5900 fluorescence intensity (a.u.)
- CAGTTTCATATTTCACATCTAGATTAAGTATTAGTAGCAACGGAGTCACCTAGTGCAG — lower, 3170 fluorescence intensity (a.u.)
- TGCTGCTGCCCGCGGCGCGCGTGGCCGCCGCCGTCCTCCTCGGAGTCACCTAGTGCAG — lower, 3390 fluorescence intensity (a.u.)
- CTTTAATAATTGAACAGAGACGTATATAATTTTATAATTACGGAGTCACCTAGTGCAG — lower, 3720 fluorescence intensity (a.u.)
- GTGAATCTCCGGAAAACGACGACACTATAACACTCGGCGTCGGAGTCACCTAGTGCAG — lower, 17400 fluorescence intensity (a.u.)
- GTAGCGTAGACGTCTCCGCCCATTCCCAATTTCCCATTCCCGGAGTCACCTAGTGCAG — lower, 31500 fluorescence intensity (a.u.)
- AAATTGCCACGTAAGTGCCATGTCATATGAAGACCGAGTCCGGAGTCACCTAGTGCAG — lower, 17800 fluorescence intensity (a.u.)
- TAAAGCATCCGACACTGCCACGTGGGCCCACCGACCCGACCGGAGTCACCTAGTGCAG — lower, 22600 fluorescence intensity (a.u.)
- ATTTAGTCTGTTACCACCTGTGGTTAGTACAAATGAAGTTCGGAGTCACCTAGTGCAG — lower, 20700 fluorescence intensity (a.u.)
- TGGCCGCGCTCATCTTTCCGCCCGTATTACACGTACGCAGCGGAGTCACCTAGTGCAG — lower, 6660 fluorescence intensity (a.u.)
- GTGTAGGTGGCGGCGGCGAGGACGTGGCGGAAGGGGCGGTCGGAGTCACCTAGTGCAG — lower, 5530 fluorescence intensity (a.u.)
- TCTGACTGCCTCCGTCACTCCGTGCCTCGTTGGGAGCAGCCGGAGTCACCTAGTGCAG — lower, 5300 fluorescence intensity (a.u.)
- TCCTCCTCCTCCGGCTGCCACCGCCACGCCTCCCCGCATGCGGAGTCACCTAGTGCAG — lower, 3160 fluorescence intensity (a.u.)
- AAGTAAATCAACGTCCGTGATCTGCGCACGTCACCGGCTTCGGAGTCACCTAGTGCAG — lower, 6410 fluorescence intensity (a.u.)
- AACTCAGGGGCGGATCAACACCCTGTCACCTGGTCCACGCCGGAGTCACCTAGTGCAG — lower, 3840 fluorescence intensity (a.u.)
- CGTGTTGTTTCTTACGTACCATTTAAATAGTTACTCTCTCCGGAGTCACCTAGTGCAG — lower, 3620 fluorescence intensity (a.u.)
- TTTTCGCACATGTTTGGTCACCTCTAGCACTCTGTCGAAGCGGAGTCACCTAGTGCAG — lower, 3600 fluorescence intensity (a.u.)
- GGCGAGCCCAACTAACCCGTCCACATCCTCATTGAGTAGTCGGAGTCACCTAGTGCAG — lower, 4400 fluorescence intensity (a.u.)
- TGGCCCTGTTCAGGTCGCTCTTCCACGTGTGTGACATTGGCGGAGTCACCTAGTGCAG — lower, 8260 fluorescence intensity (a.u.)
- TGGTACGTAGTACGGACGACGTGTCATCCCCTTGCGGCGCCGGAGTCACCTAGTGCAG — lower, 8840 fluorescence intensity (a.u.)
- CTTCAGTCATTTTCCATCACATCAACCTGTCATACACACACGGAGTCACCTAGTGCAG — lower, 4000 fluorescence intensity (a.u.)
- TAAATTTCTGTAGCAATGTGCGGGGTCTCATCATCTAGTTCGGAGTCACCTAGTGCAG — lower, 3220 fluorescence intensity (a.u.)
